Measured values as given in PubChem BioAssay AID504444 (National Center for Advancing Translational Sciences (NCATS), 2011).
Among all 360,000 compounds or so, about 7,500 (2.1%) were called active. Inconclusive results, whose numbers are uncertain, are shown with a selection of clear calls. Calls follow the shape of the dose curve; as a rule, active = well fitted inhibition curve with a large enough effect; inconclusive = small, poorly fitted or top-dose-only effect, or effect the other way; inactive = flat fitted curve, though single readings scatter. A potency beside an inconclusive call is a rough fit, not a confirmed value.

Test: Nrf2 qHTS screen for inhibitors; also: nearly all actives have a fitted effect of over 60% in size
Settings: A549 ARE-Fluc reporter, luciferase luminescence, 18-24 h; series mostly up to 46 µM
Outline: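 A549 ARE_Fluc cells, 5000/well, 5% FBS OPTI-MEM; compounds in dose-response, 18-24 h at 37 °C/5% CO2; CellTiter-Fluor viability read (Ex 405/Em 525), then BugLite luciferase luminescence = Nrf2 activity.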
Potency is read from the fitted curve at half-maximal effect.

| Compound | Potency |
| --- | --- |
| Cc1ccc2nc(Cl)c(CN(Cc3cccs3)C(=O)C3CC3)cc2c1 | inconclusive: 25.9 µM [falling, partial curve, poor fit] |
| Cc1ccc(C(C)C)c(OCCn2ccnc2C)c1 | inactive |
| CC(=O)N1CCC2(CC1)OC(=O)C(C)=C2C(=O)NCc1ccc(Cl)cc1 | inconclusive: 36.6 µM [activator, partial curve, poor fit] |
| O=c1c2ccccc2nc2c3ccccc3c(NCCO)nn12 | inconclusive: 10.3 µM [falling, partial curve, poor fit] |
| CC(=O)c1cccc(NC(=O)c2cc(-c3ccncc3)nc3ccccc23)c1 | inactive |
| Cc1nc(Nc2ccccc2F)c2nnn(Cc3ccccc3Cl)c2n1 | inconclusive: 2.31 µM [falling, full curve, poor fit] |
| CC[C@]12c3[nH]c4cc(CCC(=O)N(C)C)ccc4c3CCN1C(=O)[C@@H](CC(=O)NCc1ccc(OC)c(OC)c1)C[C@@H]2C(=O)N1CCN(C(=O)C2CC2)CC1 | inconclusive: 16.4 µM [activator, partial curve, poor fit] |
| O=C(Nc1ccc(CN2CCS(=O)(=O)CC2)cc1)c1ccc(Cl)cc1 | inconclusive: 16.4 µM [falling, single point] |
| CS(=O)(=O)N1CCN(c2ccc(NC(=S)NC(=O)c3ccc4c(c3)OCO4)cc2)CC1 | inconclusive: 3.66 µM [activator, partial curve, poor fit] |
| Cc1nn(S(=O)(=O)c2ccccc2)c(C)c1Sc1ccc([N+](=O)[O-])cc1 | inconclusive: 29.1 µM [falling, partial curve, poor fit] |
| COc1ccc(S(=O)(=O)NCc2ccco2)c2ccccc12 | active: 3.66 µM |
| COc1ccc(NC(=O)Cc2nnc(SCC(=O)Nc3cc(C)ccc3OC)n2C)cc1 | inactive |
| CC(=O)N(CCc1ccccc1C)Cc1cc2ccc(C)cc2[nH]c1=O | inconclusive: 0.92 µM [falling, full curve, poor fit] |
| CC(=O)c1sc(N/N=C/c2ccc(C(C)C)cc2)nc1C | inconclusive: 25.9 µM [activator, single point] |
| CC1=NN(c2ccccc2)C(=O)C1 | inactive |
| COc1ccccc1/C=N/NC(=O)CSc1cc(C)nc2ccccc12 | inconclusive: 18.4 µM [activator, partial curve, poor fit] |
| COc1ccc(NC(=O)CCOc2ccccc2C)cc1S(=O)(=O)N1CCCCC1 | inconclusive: 20.6 µM [falling, single point] |
| O=C(CN1CCN(Cc2ccccc2Cl)C1=O)NCc1ccccn1 | inconclusive: 0.517 µM [falling, partial curve] |
| Cc1cc(Cl)c(S(=O)(=O)Nc2ccc3c(c2)OCCO3)cc1OCC(=O)NC1CCCCC1 | inconclusive: 23.1 µM [falling, single point] |
| Nc1ccn(CC(=O)NCc2ccccn2)c(=O)n1 | inconclusive: 2.06 µM [activator, full curve, poor fit] |

| Compound | Potency |
| --- | --- |
| O=C(NCC1CCCO1)c1cccc(NS(=O)(=O)c2ccc(Br)cc2)c1 (centres undefined) | inconclusive: 23.1 µM [falling, single point] |
| Cc1ccc(-n2ccnc(NCCc3ccc(S(N)(=O)=O)cc3)c2=O)cc1C | inconclusive: 29.1 µM [falling, single point] |
| CCC(CO)Oc1cc(NCc2ccccc2O)c2ncn(C(C)C)c2c1 (centres undefined) | inconclusive: 18.4 µM [falling, single point] |
| COc1ccc(CNCC(O)COc2cccc3c2OC(C)(C)C3)cc1 (centres undefined) | inconclusive: 18.4 µM [falling, partial curve] |
| O=C(COc1ccccc1Cl)Nc1ccc(Cl)c(-c2nc3ccccc3o2)c1 | inconclusive: 23.1 µM [falling, partial curve, poor fit] |
| O=C(O)C(CCCCNS(=O)(=O)c1ccc(F)cc1)NS(=O)(=O)c1ccc(F)cc1 (centres undefined) | inconclusive: 20.6 µM [falling, partial curve, poor fit] |
| COc1cc(Cl)c(NS(=O)(=O)c2ccc(-c3ccc(=O)[nH]n3)o2)c(OC)c1 | inactive |
| COC(=O)COc1ccc(S(=O)(=O)NC2CCCCCC2)cc1 | inconclusive: 29.1 µM [falling, partial curve, poor fit] |
| Cc1ccc(CN2CCN(C3CCN(S(=O)(=O)c4ccc(C)cc4)CC3)C(=O)C2=O)cc1 | inconclusive: 29.1 µM [activator, single point] |
| O=C(N/N=C/c1cccc(F)c1)c1c(O)c2c([nH]c1=O)CCCC2 | inconclusive: 0.058 µM [activator, full curve, poor fit] |
| C[C@H]1NC(=O)[C@]2(C)[C@@H](c3ccccc3)[C@H]3COc4ccccc4[C@H]3N2C1=O | inactive |
| Cc1ccc(/C=N/Nc2nc3ccccc3[nH]2)s1 | inconclusive: 29.1 µM [falling, single point] |
| O=C(Nc1ccc(S(=O)(=O)Nc2ncccn2)cc1)c1ccc(F)c(S(=O)(=O)N2CCOCC2)c1 | inactive |
| Cc1ccc(CNS(=O)(=O)c2cc3c4c(c2)C(C)C(=O)N4CCC3)cc1 (centres undefined) | inconclusive: 14.6 µM [falling, partial curve, poor fit] |
| CCOC(=O)c1ccc(NC(=O)c2csc3c2CCCCC3)cc1 | inconclusive: 0.82 µM [activator, full curve, poor fit] |
| CCOc1ccc(/C=N/OCC(=O)NC(c2ccccc2)c2ccccc2)cc1 | inconclusive: 29.1 µM [falling, single point] |
| CCN(C(=O)CSc1nc2cc(Cl)ccc2c(=O)n1Cc1ccco1)C1CCS(=O)(=O)C1 (centres undefined) | inconclusive: 32.6 µM [falling, single point] |
| CCOc1cc(C(=O)OCC(=O)Nc2ccc(F)cc2Cl)ccc1OCC(=O)N1CCOCC1 | inconclusive: 29.1 µM [activator, single point] |
| COc1cccc(/C=N/Nc2nnc3c(n2)[nH]c2ccccc23)c1OC | inconclusive: 1.84 µM [activator, full curve] |

A second format for three compounds above.
Compound	Potency
COc1ccccc1/C=N/NC(=O)CSc1cc(C)nc2ccccc12	inconclusive: 18.4 µM [activator, partial curve, poor fit]
Cc1cc(Cl)c(S(=O)(=O)Nc2ccc3c(c2)OCCO3)cc1OCC(=O)NC1CCCCC1	inconclusive: 23.1 µM [falling, single point]
O=C(Nc1ccc(S(=O)(=O)Nc2ncccn2)cc1)c1ccc(F)c(S(=O)(=O)N2CCOCC2)c1	inactive
